The other results are listed elsewhere or left out. For some of these results: At the low end of the ranking the order means little.
Assays:
Settings in all cases: 10 mM Tris-Cl pH 7.5, 50 mM NaCl, 1 mM DTT, 0.25 mg/ml BSA, 2 mM MgCl2, 0.025% Nonidet P-40, 5% glycerol; 28 nM nucleosome library; 10 min on ice then 30 min …; high values mean tight binding; double strand, one strand shown
KLF4 + histone octamer = assay: EMSA with sequencing
SOX2 + histone octamer = assay: EMSA with sequencing
[1] = tested on: c-MYC + MAX + histone octamer; assay: EMSA with sequencing
OCT4 + histone octamer = assay: Pioneer-seq (competitive nucleosome EMSA with sequencing)

| Sequence | binding signal (log2 relative supershift) (KLF4 + histone octamer) | binding signal (log2 relative supershift) (SOX2 + histone octamer) | binding signal (log2 relative supershift) [1] | binding signal (log2 relative supershift) (OCT4 + histone octamer) |
| --- | --- | --- | --- | --- |
| GATGGACCCTATACGCGGCATTCTCTAAATCCCAAGTATCTCCCCCTGCTTAAAGACTCCTTCAGAGTCCTTTGTTGAAAACATTGTACCCCTCTCAATTAGCTACACTTACAGTTGTCATTCACTTTTCAACACCCACCCCCATGCATTACAATGTAGCTAAGTGCTCTAGCTGAAGTTATAAAAGACATCCTAATCACCAAGTCTCAGTGCCAGTCGGATAGTGTTCC | 0.554 | 1.11 | 0.241 | -0.0597 |
| GATGGACCCTATACGCGGCTGTAAAGAAATGAAAGAATGTGCACATAAATACACACACACATGCACACACACACACACGCTTGCTGACACGCATGCATACACTTTTCTCTCCATGAGAACGTCAAGTTTGTTTGAGTGGTGGTGGGGAGGTTGATGTAGAACTAGAAGAGGTTTTTGGTGTGTGCTTTAATTACATTTTTCATTCAGCTTTGCCAGTCGGATAGTGTTCC | 2.19 | 1.14 | 0.278 | -0.0413 |
| GATGGACCCTATACGCGGCTTGAGTAAACATCCCCAAAAGATCCCATTAAGATGTAAACATGAAAGAATGCTCAATACAGCTGTGGTCTCACCATTTGCCTTGTGTTGTACATCTGGCGGAAGCTGGTCAAGAGCATACCACTGATAGTCTGGCTGTGTGGAACAATACAACATTATTATAGCAATATGGACTTCAAATATAGTGGCATGTGCCAGTCGGATAGTGTTCC | 0.166 | 1.13 | 0.888 | -0.0614 |
| GATGGACCCTATACGCGGCGAGATTATGCCCTGCATGCCTTCGCTAATGTAGATGTTCCCAACCCCTAAGGTAGCACGTGGTGTGGGCGTGGTCAGCTCAGCTCATCCAACAATAAGAACACAGCTTGTTTGGAGCACTCACTATGCCAGCTTTAAAGCAACTCTACTCTGGAACTACCTCTCTTGGCCCCATGGACTGGCCACAAAAGCTGCCAGTCGGATAGTGTTCC | 0.931 | 0.806 | 0.431 | -0.622 |

Reference: publication PMC12370185
